The record followed here is patent US20220119490A1.

By UniProt entry, the sequences of proteins in these tests, tags left out. Residues count along the entry.
UniProt Q8NHJ6, residues 22-448: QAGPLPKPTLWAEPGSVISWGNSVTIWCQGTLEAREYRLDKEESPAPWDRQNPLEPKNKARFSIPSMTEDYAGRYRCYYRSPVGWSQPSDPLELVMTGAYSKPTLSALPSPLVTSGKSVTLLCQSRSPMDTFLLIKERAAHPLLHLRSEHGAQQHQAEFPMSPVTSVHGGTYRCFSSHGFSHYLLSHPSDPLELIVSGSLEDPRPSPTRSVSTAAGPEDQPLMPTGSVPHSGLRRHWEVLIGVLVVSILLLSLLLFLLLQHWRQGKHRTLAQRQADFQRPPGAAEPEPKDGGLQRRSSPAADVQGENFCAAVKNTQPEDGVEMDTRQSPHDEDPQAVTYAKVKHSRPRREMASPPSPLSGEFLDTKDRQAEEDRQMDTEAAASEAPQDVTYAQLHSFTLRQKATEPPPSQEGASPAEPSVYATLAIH
UniProt Q8NHL6, residues 24-650: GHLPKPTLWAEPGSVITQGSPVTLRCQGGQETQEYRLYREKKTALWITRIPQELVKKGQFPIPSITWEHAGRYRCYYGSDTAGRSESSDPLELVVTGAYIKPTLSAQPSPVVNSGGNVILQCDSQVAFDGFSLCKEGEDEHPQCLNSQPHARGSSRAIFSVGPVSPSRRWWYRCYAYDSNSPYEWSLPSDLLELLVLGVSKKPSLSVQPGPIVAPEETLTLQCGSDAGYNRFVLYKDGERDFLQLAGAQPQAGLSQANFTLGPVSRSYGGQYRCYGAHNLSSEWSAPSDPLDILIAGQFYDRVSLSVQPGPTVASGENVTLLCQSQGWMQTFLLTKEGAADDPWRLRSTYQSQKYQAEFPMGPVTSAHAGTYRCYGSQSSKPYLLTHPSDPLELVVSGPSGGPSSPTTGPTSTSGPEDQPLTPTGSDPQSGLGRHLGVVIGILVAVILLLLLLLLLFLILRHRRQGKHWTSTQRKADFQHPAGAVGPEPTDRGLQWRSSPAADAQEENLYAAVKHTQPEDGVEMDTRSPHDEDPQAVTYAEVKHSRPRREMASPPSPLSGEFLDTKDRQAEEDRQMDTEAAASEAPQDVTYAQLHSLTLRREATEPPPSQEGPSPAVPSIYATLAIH

One experiment has as its target T1, mouse PDPN (mouse) (UniProt Q62011).
T1 sequence (looked up): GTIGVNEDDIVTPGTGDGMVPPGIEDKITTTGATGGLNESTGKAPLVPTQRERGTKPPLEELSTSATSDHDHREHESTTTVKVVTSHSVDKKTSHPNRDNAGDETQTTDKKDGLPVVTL
The experiment is described as follows: SPR (data not shown).

Experiment [1] has as its target T2, CNTN1 extracellular domain (human) (UniProt Q12860).
T2 sequence (looked up): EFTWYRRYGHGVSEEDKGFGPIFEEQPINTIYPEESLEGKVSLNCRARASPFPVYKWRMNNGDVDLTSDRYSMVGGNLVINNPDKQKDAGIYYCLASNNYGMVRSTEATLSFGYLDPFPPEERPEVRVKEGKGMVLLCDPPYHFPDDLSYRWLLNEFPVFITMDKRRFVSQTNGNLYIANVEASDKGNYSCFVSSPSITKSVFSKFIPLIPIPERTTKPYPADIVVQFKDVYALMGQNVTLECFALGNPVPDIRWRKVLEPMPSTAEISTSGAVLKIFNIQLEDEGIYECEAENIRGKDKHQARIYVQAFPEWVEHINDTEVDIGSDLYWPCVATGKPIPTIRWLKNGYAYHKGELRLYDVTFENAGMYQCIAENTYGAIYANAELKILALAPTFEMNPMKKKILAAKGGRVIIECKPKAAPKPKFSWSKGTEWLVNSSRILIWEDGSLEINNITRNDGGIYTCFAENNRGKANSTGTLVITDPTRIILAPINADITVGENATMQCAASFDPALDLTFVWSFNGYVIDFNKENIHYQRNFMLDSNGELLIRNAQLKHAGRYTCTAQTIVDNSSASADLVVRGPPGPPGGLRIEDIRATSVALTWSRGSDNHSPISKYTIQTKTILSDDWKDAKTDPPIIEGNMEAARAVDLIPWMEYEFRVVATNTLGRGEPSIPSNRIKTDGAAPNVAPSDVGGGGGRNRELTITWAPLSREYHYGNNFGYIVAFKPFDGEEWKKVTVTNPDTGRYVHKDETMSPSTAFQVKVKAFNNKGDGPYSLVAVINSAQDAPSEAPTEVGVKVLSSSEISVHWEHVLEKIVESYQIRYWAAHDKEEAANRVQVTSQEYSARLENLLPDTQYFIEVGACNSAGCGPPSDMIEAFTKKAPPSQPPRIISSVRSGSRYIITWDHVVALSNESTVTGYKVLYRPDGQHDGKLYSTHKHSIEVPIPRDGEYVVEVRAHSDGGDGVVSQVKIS
The experiment is described as follows: SPR; CNTN1 ECD-Fc immobilized on CM5, analyte at 250 nM (FIG. 9I). A general note: In SPR one partner is held on a chip, and binding of the other changes the refractive index at the surface.

The target in experiment [2] is T3, IL20-RA full-length on cells (human) (UniProt Q9UHF4).
T3 sequence (looked up): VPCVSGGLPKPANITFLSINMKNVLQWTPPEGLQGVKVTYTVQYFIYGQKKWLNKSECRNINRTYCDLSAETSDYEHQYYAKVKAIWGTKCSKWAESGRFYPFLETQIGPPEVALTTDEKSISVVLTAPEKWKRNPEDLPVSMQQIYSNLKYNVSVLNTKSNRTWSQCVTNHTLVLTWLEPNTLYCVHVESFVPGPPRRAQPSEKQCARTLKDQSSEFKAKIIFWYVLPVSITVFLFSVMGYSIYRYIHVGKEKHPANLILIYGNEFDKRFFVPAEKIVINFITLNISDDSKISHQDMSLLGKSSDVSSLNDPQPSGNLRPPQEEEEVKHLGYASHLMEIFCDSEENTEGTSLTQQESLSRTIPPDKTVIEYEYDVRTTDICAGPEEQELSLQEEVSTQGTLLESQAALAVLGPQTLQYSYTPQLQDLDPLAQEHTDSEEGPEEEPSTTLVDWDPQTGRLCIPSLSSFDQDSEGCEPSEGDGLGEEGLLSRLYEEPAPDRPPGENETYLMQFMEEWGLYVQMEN
The experiment is described as follows: automated cell surface interaction screen, tetramerised query on the full-length untagged STM library, S/N in two replicates.

Experiment [3] has as its target T3, IL20-RA full-length on cells (human). The experiment is described as follows: automated cell surface interaction screen on the untagged full-length library.
The target of experiment [4] is T4, IL20-RA ectodomain-gD-GPI on cells (human) (UniProt Q9UHF4).
T4 sequence (looked up): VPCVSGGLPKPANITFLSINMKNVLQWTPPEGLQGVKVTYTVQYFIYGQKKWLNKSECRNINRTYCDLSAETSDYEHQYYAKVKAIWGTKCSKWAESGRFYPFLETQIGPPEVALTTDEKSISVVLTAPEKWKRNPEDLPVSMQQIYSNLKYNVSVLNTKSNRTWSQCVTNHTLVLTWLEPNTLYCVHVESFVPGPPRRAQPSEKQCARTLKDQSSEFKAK
The experiment is described as follows: automated cell surface interaction screen: tetramerized query on the ectodomain-gD-GPI library (FIG. 14F).

Experiment [5] addresses T4, IL20-RA ectodomain-gD-GPI on cells (human). The experiment is described as follows: automated cell surface interaction screen on the ectodomain-gD-GPI library.
Experiment [6] has as its target T3, IL20-RA full-length on cells (human). The experiment is described as follows: automated cell surface interaction screen: tetramerized query on the untagged full-length library (FIG. 14G).
In experiment [7] the target is T4, IL20-RA ectodomain-gD-GPI on cells (human). The experiment in a line: automated cell surface interaction screen, tetramerised query on the ectodomain-gD-GPI STM library, S/N in two replicates.
The target in experiment [8] is LILRB4 expressed on cells (human) (UniProt Q8NHJ6). The experiment in a line: co-immunoprecipitation, LILRB4-FLAG with CNTFR-HA co-expressed in cells.
Experiment [9] addresses LILRB1 expressed on cells (human) (UniProt Q8NHL6). The experiment is described as follows: co-immunoprecipitation, LILRB1-FLAG with EDAR-HA co-expressed in cells.

Results are given in words; binding and its absence hold for the method and conditions named. For some of these results: Binding seen in cells or lysates may run through a third protein. Some entries that bind do so weakly or less than the wild type.

B1: mouse CLEC-2 (receptor)
chain: MSVTQQKYLLAEKENLSATLQQLAKKFCQELIRQSEIKTKSTFEHKCSPCATKWRYHGDSCYGFFRRNLTWEESKQYCTEQNATLVKTASQSTLDYIAERITSVRWIGLSRQNSKKDWMWEDSSVLRKNGINLSGNTEENMNCAYLHNGKIHPASCKERHYLICERNAGMTRVDQLL
Turning to B1, the binding result in the experiment with mouse PDPN (mouse) was “binds”.

B2: NFASC (recombinant) (receptor, human, UniProt O94856 25-1217, looked up)
chain: IEIPMDPSIQNELTQPPTITKQSAKDHIVDPRDNILIECEAKGNPAPSFHWTRNSRFFNIAKDPRVSMRRRSGTLVIDFRSGGRPEEYEGEYQCFARNKFGTALSNRIRLQVSKSPLWPKENLDPVVVQEGAPLTLQCNPPPGLPSPVIFWMSSSMEPITQDKRVSQGHNGDLYFSNVMLQDMQTDYSCNARFHFTHTIQQKNPFTLKVLTTRGVAERTPSFMYPQGTASSQMVLRGMDLLLECIASGVPTPDIAWYKKGGDLPSDKAKFENFNKALRITNVSEEDSGEYFCLASNKMGSIRHTISVRVKAAPYWLDEPKNLILAPGEDGRLVCRANGNPKPTVQWMVNGEPLQSAPPNPNREVAGDTIIFRDTQISSRAVYQCNTSNEHGYLLANAFVSVLDVPPRMLSPRNQLIRVILYNRTRLDCPFFGSPIPTLRWFKNGQGSNLDGGNYHVYENGSLEIKMIRKEDQGIYTCVATNILGKAENQVRLEVKDPTRIYRMPEDQVARRGTTVQLECRVKHDPSLKLTVSWLKDDEPLYIGNRMKKEDDSLTIFGVAERDQGSYTCVASTELDQDLAKAYLTVLADQATPTNRLAALPKGRPDRPRDLELTDLAERSVRLTWIPGDANNSPITDYVVQFEEDQFQPGVWHDHSKYPGSVNSAVLRLSPYVNYQFRVIAINEVGSSHPSLPSERYRTSGAPPESNPGDVKGEGTRKNNMEITWTPMNATSAFGPNLRYIVKWRRRETREAWNNVTVWGSRYVVGQTPVYVPYEIRVQAENDFGKGPEPESVIGYSGEDYPRAAPTEVKVRVMNSTAISLQWNRVYSDTVQGQLREYRAYYWRESSLLKNLWVSQKRQQASFPGDRLRGVVSRLFPYSNYKLEMVVVNGRGDGPRSETKEFTTPEGVPSAPRRFRVRQPNLETINLEWDHPEHPNGIMIGYTLKYVAFNGTKVGKQIVENFSPNQTKFTVQRTDPVSRYRFTLSARTQVGSGEAVTEESPAPPNEATPTAAPPTLPPTTVGATGAVSSTDATAIAATTEATTVPIIPTVAPTTIATTTTVATTTTTTAAATTTTESPPTTTSGTKIHESAPDEQSIWNVTVLPNSKWANITWKHNFGPGTDFVVEYIDSNHTKKTVPVKAQAQPIQLTDLYPGMTYTLRVYSRDNEGISSTVITFMTSTAYTNNQADIATQGW
In the case of B2, in experiment [1], the binding result is given as “binds”.

B3: B7-H3 extracellular domain (receptor, human, UniProt Q5ZPR3 29-466, looked up)
chain: LEVQVPEDPVVALVGTDATLCCSFSPEPGFSLAQLNLIWQLTDTKQLVHSFAEGQDQGSAYANRTALFPDLLAQGNASLRLQRVRVADEGSFTCFVSIRDFGSAAVSLQVAAPYSKPSMTLEPNKDLRPGDTVTITCSSYQGYPEAEVFWQDGQGVPLTGNVTTSQMANEQGLFDVHSILRVVLGANGTYSCLVRNPVLQQDAHSSVTITPQRSPTGAVEVQVPEDPVVALVGTDATLRCSFSPEPGFSLAQLNLIWQLTDTKQLVHSFTEGRDQGSAYANRTALFPDLLAQGNASLRLQRVRVADEGSFTCFVSIRDFGSAAVSLQVAAPYSKPSMTLEPNKDLRPGDTVTITCSSYRGYPEAEVFWQDGQGVPLTGNVTTSQMANEQGLFDVHSVLRVVLGANGTYSCLVRNPVLQQDAHGSVTITGQPMTFPPEA
For B3, the binding entry in experiment [2], in experiment [3], in experiment [4], in experiment [5], in [6] and in experiment [7] was “binds” each time.

B4: CNTFR expressed on cells (receptor, human, UniProt P26992 23-342, looked up)
chain: QRHSPQEAPHVQYERLGSDVTLPCGTANWDAAVTWRVNGTDLAPDLLNGSQLVLHGLELGHSGLYACFHRDSWHLRHQVLLHVGLPPREPVLSCRSNTYPKGFYCSWHLPTPTYIPNTFNVTVLHGSKIMVCEKDPALKNRCHIRYMHLFSTIKYKVSISVSNALGHNATAITFDEFTIVKPDPPENVVARPVPSNPRRLEVTWQTPSTWPDPESFPLKFFLRYRPLILDQWQHVELSDGTAHTITDAYAGKEYIIQVAAKDNEIGTWSDWSVAAHATPWTEEPRHLTTEAQAAETTTSTTSSLAPPPTTKICDPGELGS
As for B4, the binding result in [8] was “binds”.

B5: EDAR expressed on cells (receptor, human, UniProt Q9UNE0 27-448, looked up)
chain: EYSNCGENEYYNQTTGLCQECPPCGPGEEPYLSCGYGTKDEDYGCVPCPAEKFSKGGYQICRRHKDCEGFFRATVLTPGDMENDAECGPCLPGYYMLENRPRNIYGMVCYSCLLAPPNTKECVGATSGASANFPGTSGSSTLSPFQHAHKELSGQGHLATALIIAMSTIFIMAIAIVLIIMFYILKTKPSAPACCTSHPGKSVEAQVSKDEEKKEAPDNVVMFSEKDEFEKLTATPAKPTKSENDASSENEQLLSRSVDSDEEPAPDKQGSPELCLLSLVHLAREKSATSNKSAGIQSRRKKILDVYANVCGVVEGLSPTELPFDCLEKTSRMLSSTYNSEKAVVKTWRHLAESFGLKRDEIGGMTDGMQLFDRISTAGYSIPELLTKLVQIERLDAVESLCADILEWAGVVPPASQPHAAS
Regarding B5, in experiment [9], the binding result was “binds”.
